Source: paper PMC9548179
No constants are given. Whether binding was seen depends on the method and setting. In cells and extracts the contact can be indirect. A yes stands for co-enrichment or nearness to the bait. Other partners may have been found.

Amino acid sequences for entries named in this document (tags omitted). Residues count along the entry.
UniProt Q9UBS4, residues 23-358: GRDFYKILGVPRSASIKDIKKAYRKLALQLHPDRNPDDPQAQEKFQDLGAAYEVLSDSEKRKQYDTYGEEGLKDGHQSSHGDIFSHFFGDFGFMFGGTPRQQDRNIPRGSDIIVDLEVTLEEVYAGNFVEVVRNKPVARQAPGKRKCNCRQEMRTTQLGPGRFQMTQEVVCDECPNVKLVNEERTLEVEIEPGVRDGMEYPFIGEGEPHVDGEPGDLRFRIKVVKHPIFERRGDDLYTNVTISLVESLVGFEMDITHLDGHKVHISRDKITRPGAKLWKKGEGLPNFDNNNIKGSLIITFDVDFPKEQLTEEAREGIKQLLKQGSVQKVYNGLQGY
UniProt P05187, residues 23-506: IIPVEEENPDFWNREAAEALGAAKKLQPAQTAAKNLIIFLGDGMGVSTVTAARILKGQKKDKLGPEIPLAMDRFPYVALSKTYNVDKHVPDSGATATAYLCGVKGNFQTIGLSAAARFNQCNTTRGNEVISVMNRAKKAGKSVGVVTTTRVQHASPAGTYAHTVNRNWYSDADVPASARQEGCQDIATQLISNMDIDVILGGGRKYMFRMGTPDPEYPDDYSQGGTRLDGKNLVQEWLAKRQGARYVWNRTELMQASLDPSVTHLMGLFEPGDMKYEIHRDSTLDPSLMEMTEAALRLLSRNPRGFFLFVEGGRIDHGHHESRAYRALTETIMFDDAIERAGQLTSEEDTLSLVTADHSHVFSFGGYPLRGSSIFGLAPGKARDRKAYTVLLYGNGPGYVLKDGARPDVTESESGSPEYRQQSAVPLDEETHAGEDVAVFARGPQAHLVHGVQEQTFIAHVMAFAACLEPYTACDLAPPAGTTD
UniProt P08174, residues 35-353: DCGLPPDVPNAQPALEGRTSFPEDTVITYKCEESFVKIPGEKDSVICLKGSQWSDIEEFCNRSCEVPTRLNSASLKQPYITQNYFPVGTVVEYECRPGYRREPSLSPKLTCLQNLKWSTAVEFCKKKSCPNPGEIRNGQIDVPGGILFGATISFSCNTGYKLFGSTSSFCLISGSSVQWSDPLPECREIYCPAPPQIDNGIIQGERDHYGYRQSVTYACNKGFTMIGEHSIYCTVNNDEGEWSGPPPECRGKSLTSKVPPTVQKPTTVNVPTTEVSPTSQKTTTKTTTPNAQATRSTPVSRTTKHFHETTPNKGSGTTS
UniProt P06396, residues 28-782: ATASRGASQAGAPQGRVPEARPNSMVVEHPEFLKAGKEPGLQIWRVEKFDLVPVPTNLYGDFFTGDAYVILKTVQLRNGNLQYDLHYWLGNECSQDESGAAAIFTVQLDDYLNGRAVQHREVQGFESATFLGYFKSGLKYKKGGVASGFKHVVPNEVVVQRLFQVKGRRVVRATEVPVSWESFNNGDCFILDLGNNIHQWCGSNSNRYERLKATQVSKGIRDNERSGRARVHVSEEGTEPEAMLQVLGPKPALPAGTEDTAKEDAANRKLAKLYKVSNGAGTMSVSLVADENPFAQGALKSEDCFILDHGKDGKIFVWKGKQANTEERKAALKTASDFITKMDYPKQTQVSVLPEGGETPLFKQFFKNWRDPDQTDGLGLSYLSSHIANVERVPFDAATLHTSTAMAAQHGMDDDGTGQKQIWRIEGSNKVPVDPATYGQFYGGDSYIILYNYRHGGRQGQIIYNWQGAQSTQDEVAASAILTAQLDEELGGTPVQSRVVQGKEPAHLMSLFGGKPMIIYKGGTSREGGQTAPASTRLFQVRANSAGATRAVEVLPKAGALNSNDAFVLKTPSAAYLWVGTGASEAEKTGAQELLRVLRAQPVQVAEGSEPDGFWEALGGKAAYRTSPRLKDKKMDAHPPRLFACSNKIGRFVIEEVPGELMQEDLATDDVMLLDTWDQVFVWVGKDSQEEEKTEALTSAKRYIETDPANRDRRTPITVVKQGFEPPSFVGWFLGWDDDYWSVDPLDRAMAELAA
UniProt P11021, residues 19-654: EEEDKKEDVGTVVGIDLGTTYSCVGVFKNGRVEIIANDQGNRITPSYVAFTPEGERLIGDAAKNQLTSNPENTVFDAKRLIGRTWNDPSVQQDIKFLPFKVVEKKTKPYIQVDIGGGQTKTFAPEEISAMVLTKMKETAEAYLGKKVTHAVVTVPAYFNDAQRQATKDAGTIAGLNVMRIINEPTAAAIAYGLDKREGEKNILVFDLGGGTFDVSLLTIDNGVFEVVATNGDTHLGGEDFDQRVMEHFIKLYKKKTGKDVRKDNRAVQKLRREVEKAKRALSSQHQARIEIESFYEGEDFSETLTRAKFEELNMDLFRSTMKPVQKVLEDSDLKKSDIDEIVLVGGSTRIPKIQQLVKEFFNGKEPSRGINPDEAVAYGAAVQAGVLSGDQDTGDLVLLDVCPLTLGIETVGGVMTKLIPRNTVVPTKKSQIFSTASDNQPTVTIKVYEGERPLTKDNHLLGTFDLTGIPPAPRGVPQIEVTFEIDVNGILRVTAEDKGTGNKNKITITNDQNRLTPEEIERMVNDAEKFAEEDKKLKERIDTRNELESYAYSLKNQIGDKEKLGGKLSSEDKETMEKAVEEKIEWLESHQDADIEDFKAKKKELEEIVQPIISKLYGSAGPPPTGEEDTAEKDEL

Molecular target: DnaJ Heat Shock Protein Family (Hsp40) Member B11 (human (endogenous in pancreatic cancer cells)) (UniProt Q9UBS4)
Assay: affinity purification with mass spectrometry; cells lysed in RIPA buffer with protease and phosphatase inhibitors; lysate incubated with anti-DNAJB11 antibody overnight at 4 °C, protein A agarose 4 h, washed thrice with lysis buffer; eluate on SDS-PAGE, then LC-MS/MS; IgG as negative control

binding | Molecule
binds | ALPP (from UniProt P05187 23-506)
binds | CD55 (from UniProt P08174 35-353)
binds | EGFR (from UniProt P00533 25-1210) (receptor)
binds | GSN (from UniProt P06396 28-782)
binds | Heat Shock Protein Family A (Hsp70) Member 5 (from UniProt P11021 19-654)

Molecular target: DnaJ Heat Shock Protein Family (Hsp40) Member B11 (human (endogenous in pancreatic cancer cells)) (UniProt Q9UBS4)
Assay: as above
Remark: another data set of the same source

binding | Molecule
binds | CGN (protein, UniProt Q9P2M7 1-1203) MEQAPNMAEPRGPVDHGVQIRFITEPVSGAEMGTLRRGGRRPAKDARASTYGVAVRVQGIAGQPFVVLNSGEKGGDSFGVQIKGANDQGASGALSSDLELPENPYSQVKGFPAPSQSSTSDEEPGAYWNGKLLRSHSQASLAGPGPVDPSNRSNSMLELAPKVASPGSTIDTAPLSSVDSLINKFDSQLGGQARGRTGRRTRMLPPEQRKRSKSLDSRLPRDTFEERERQSTNHWTSSTKYDNHVGTSKQPAQSQNLSPLSGFSRSRQTQDWVLQSFEEPRRSAQDPTMLQFKSTPDLLRDQQEAAPPGSVDHMKATIYGILREGSSESETSVRRKVSLVLEKMQPLVMVSSGSTKAVAGQGELTRKVEELQRKLDEEVKKRQKLEPSQVGLERQLEEKTEECSRLQELLERRKGEAQQSNKELQNMKRLLDQGEDLRHGLETQVMELQNKLKHVQGPEPAKEVLLKDLLETRELLEEVLEGKQRVEEQLRLRERELTALKGALKEEVASRDQEVEHVRQQYQRDTEQLRRSMQDATQDHAVLEAERQKMSALVRGLQRELEETSEETGHWQSMFQKNKEDLRATKQELLQLRMEKEEMEEELGEKIEVLQRELEQARASAGDTRQVEVLKKELLRTQEELKELQAERQSQEVAGRHRDRELEKQLAVLRVEADRGRELEEQNLQLQKTLQQLRQDCEEASKAKMVAEAEATVLGQRRAAVETTLRETQEENDEFRRRILGLEQQLKETRGLVDGGEAVEARLRDKLQRLEAEKQQLEEALNASQEEEGSLAAAKRALEARLEEAQRGLARLGQEQQTLNRALEEEGKQREVLRRGKAELEEQKRLLDRTVDRLNKELEKIGEDSKQALQQLQAQLEDYKEKARREVADAQRQAKDWASEAEKTSGGLSRLQDEIQRLRQALQASQAERDTARLDKELLAQRLQGLEQEAENKKRSQDDRARQLKGLEEKVSRLETELDEEKNTVELLTDRVNRGRDQVDQLRTELMQERSARQDLECDKISLERQNKDLKTRLASSEGFQKPSASLSQLESQNQLLQERLQAEEREKTVLQSTNRKLERKVKELSIQIEDERQHVNDQKDQLSLRVKALKRQVDEAEEEIERLDGLRKKAQREVEEQHEVNEQLQARIKSLEKDSWRKASRSAAESALKNEGLSSDEEFDSVYDPSSIASLLTESNLQTSSC
